Source: PubChem BioAssay AID743454 (Peter MacCallum Cancer Centre, 2014)
The deposit covers about 18,000 reagents; shown is an unselected part. Of all reagents, 450 (2.5%) are marked active. 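Single biological run; no consistent viability z cut-off exists, so the class columns, not z-scores, define the calls.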

Test: 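Knock-downs lowering viability or raising caspase 3/7 activity in vorinostat-treated resistant cells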 (primary screen)
System: human HCT116-VR colon cancer cells, selected for vorinostat resistance
Reagent: siRNA pool against human genes, 40 nM siRNA pool
Time to read-out: vorinostat for 24 h, read-out about 72 h after transfection
Challenge: vorinostat at 2.5 µM final
Read-out: 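Cell viability by CellTiter-Fluor and caspase 3/7 activity by luminescence, each scaled to mock wells per plate, duplicates averaged, then robust z-scored over all plates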
Scale: viability robust z-score: higher = more viable cells than screen typical; caspase robust z-score: higher = more caspase 3/7 activity than screen typical
Rule for the call: 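Hits are knock-downs in viability class RV1/RV2 or caspase class CA1/CA2, excluding ones that killed cells in the no-drug cell-count arm; hits then retested with single siRNAs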

gene | viability hit class | caspase hit class | viability robust z-score | caspase robust z-score | activity call
MT1X | no change | no change | 1.29 | -0.27 | inactive
RFLNB | no change | no change | -1.36 | 2.54 | inactive
RGS16 | no change | no change | -1.33 | 0.26 | inactive
HSD17B7 | no change | no change | 0.24 | -0.69 | inactive
DNAJC10 | no change | no change | -0.06 | -0.92 | inactive
MMP10 | no change | no change | -0.36 | 1.63 | inactive
STARD7 | no change | no change | 0.2 | 3.21 | inactive
PCOTH | no change | no change | 2.06 | -0.54 | inactive
TIMM21 | no change | no change | 0.65 | -0.22 | inactive
AKAP7 | no change | no change | -1.9 | -0.57 | inactive
FBLIM1 | no change | no change | 0.34 | 2.12 | inactive
TMEM63B | no change | no change | -0.61 | 3.47 | inactive
ZXDC | no change | no change | 0.32 | -0.31 | inactive
LRTOMT | no change | no change | 0.53 | -1.08 | inactive
USP44 | no change | no change | 1.48 | 0.38 | inactive
FPR2 | no change | no change | 0.9 | 1.33 | inactive
TSPAN14 | no change | no change | 1.04 | 1.21 | inactive
NKAIN1 | no change | no change | -1.19 | -0.15 | inactive
SLC2A13 | no change | no change | -0.06 | -0.58 | inactive
L1CAM | no change | no change | -0.02 | -0.31 | inactive
ATXN10 | no change | no change | -0.57 | -0.17 | inactive
WDR24 | no change | no change | -0.45 | 3.1 | inactive
GCNT4 | no change | no change | -0.26 | -0.99 | inactive
NBN | no change | no change | 0.91 | 0.04 | inactive
CANX | no change | no change | -2.02 | -0.14 | inactive
OR10V1 | no change | CA2 (caspase activation) | -0.73 | 7.28 | active
TXNRD1 | no change | no change | 0.48 | 0.9 | inactive
DMP1 | no change | no change | -0.21 | -0.64 | inactive
DRAM2 | no change | no change | -1.56 | 0.16 | inactive
KCNMB1 | no change | no change | 0.24 | 2.12 | inactive
C1QTNF7 | RV2 (reduced viability) | no change | -4.06 | -1.48 | active
SSTR1 | no change | no change | -0.92 | 0.4 | inactive
PLEKHA8 | no change | no change | -0.97 | -0.9 | inactive
AURKC | no change | no change | -0.62 | -0.4 | inactive
DAPK2 | no change | no change | 0.65 | -0.46 | inactive
DBX1 | no change | CA2 (caspase activation) | -2.65 | 5.91 | active
MEDAG | no change | no change | -2.42 | 1 | inactive
TGM2 | no change | no change | 0.49 | -0.73 | inactive
JAG1 | no change | no change | -0.39 | 1.01 | inactive
NUB1 | no change | no change | 0.22 | 0.83 | inactive
MTBP | no change | no change | -0.9 | -0.11 | inactive
VN1R10P | no change | no change | 0.3 | -0.89 | inactive
POM121 | no change | no change | -0.3 | 0.34 | inactive
SNX33 | no change | no change | 0.01 | -0.22 | inactive
ABHD17AP1 | no change | no change | 0.18 | 0.72 | inactive
ATP10A | no change | no change | -0.01 | -0.3 | inactive
THAP10 | no change | no change | 0.96 | -1.32 | inactive
GABRB2 | RV2 (reduced viability) | no change | -3.12 | 1.97 | active
GOLGA6A | no change | no change | -0.27 | 0.57 | inactive
PFDN1 | no change | no change | 0.44 | 0.65 | inactive
BCAM | no change | no change | 1.08 | -0.41 | inactive
ZNF157 | no change | no change | -0.94 | -0.16 | inactive
ARPIN | no change | no change | -2.25 | 2.36 | inactive
FAM186B | no change | no change | 1.22 | 1.06 | inactive
TLR8 | no change | no change | -0.44 | -0.53 | inactive
C6orf15 | no change | no change | -1.35 | 1.43 | inactive
CSMD3 | no change | no change | -0.46 | 0.22 | inactive
MAP2K4 | no change | no change | 1.48 | -0.76 | inactive
NCCRP1 | no change | no change | -1.36 | 1.4 | inactive
UQCC3 | no change | no change | -0.07 | 1.63 | inactive
SPEM2 | no change | no change | 2.09 | -0.34 | inactive
CCDC198 | no change | no change | -0.03 | 1.27 | inactive
DSTN | no change | no change | -0.59 | 0.76 | inactive
SDHD | no change | no change | -1.89 | 2.5 | inactive
SEPTIN12 | no change | no change | -1.16 | -1.08 | inactive
GJB2 | no change | no change | 0.29 | -0.5 | inactive
EEIG1 | no change | no change | 1.13 | -0.36 | inactive
ARHGAP30 | no change | no change | 0.46 | -0.74 | inactive
ALKBH8 | no change | no change | -0.44 | -0.59 | inactive
HSD17B11 | no change | no change | -0.26 | -0.08 | inactive
AAGAB | no change | no change | -0.04 | -0.75 | inactive
HAPSTR1 | no change | no change | 0.67 | -0.3 | inactive
G6PC2 | no change | no change | 0.3 | -0.84 | inactive

Look-ups from the entries so far:
Value for NBN under “caspase hit class”: no change
Value for GCNT4 under “caspase hit class”: no change
Value for NCCRP1 in “viability robust z-score”: -1.36
CSMD3, viability robust z-score → -0.46
For “caspase hit class”, GJB2 reads no change
